From article PMC9769732

Target: Flag-TBK1 N-terminal kinase domain (KD)
Experiment: co-IP

binding: binds
B1: V5-tagged scavenger receptor A (SRA) (receptor, UniProt P21757 1-451)
chain: MEQWDHFHNQQEDTDSCSESVKFDARSMTALLPPNPKNSPSLQEKLKSFKAALIALYLLVFAVLIPLIGIVAAQLLKWETKNCSVSSTNANDITQSLTGKGNDSEEEMRFQEVFMEHMSNMEKRIQHILDMEANLMDTEHFQNFSMTTDQRFNDILLQLSTLFSSVQGHGNAIDEISKSLISLNTTLLDLQLNIENLNGKIQENTFKQQEEISKLEERVYNVSAEIMAMKEEQVHLEQEIKGEVKVLNNITNDLRLKDWEHSQTLRNITLIQGPPGPPGEKGDRGPTGESGPRGFPGPIGPPGLKGDRGAIGFPGSRGLPGYAGRPGNSGPKGQKGEKGSGNTLTPFTKVRLVGGSGPHEGRVEILHSGQWGTICDDRWEVRVGQVVCRSLGYPGVQAVHKAAHFGQGTGPIWLNEVFCFGRESSIEECKIRQWGTRACSHSEDAGVTCTL

Results are given in words; binding and its absence hold for the method and conditions named. Binding seen in cells or lysates may run through a third protein. Binding calls can cover weak binding; strength is not graded here. Sequences can lack the tags named with a protein.
